B1: DExH-box helicase 30 (DHX30/DDX30) (protein, UniProt Q7L2E3 1-1194)
chain: MFSLDSFRKDRAQHRQRQCKLPPPRLPPMCVNPTPGGTISRASRDLLKEFPQPKNLLNSVIGRALGISHAKDKLVYVHTNGPKKKKVTLHIKWPKSVEVEGYGSKKIDAERQAAAAACQLFKGWGLLGPRNELFDAAKYRVLADRFGSPADSWWRPEPTMPPTSWRQLNPESIRPGGPGGLSRSLGREEEEDEEEELEEGTIDVTDFLSMTQQDSHAPLRDSRGSSFEMTDDDSAIRALTQFPLPKNLLAKVIQIATSSSTAKNLMQFHTVGTKTKLSTLTLLWPCPMTFVAKGRRKAEAENKAAALACKKLKSLGLVDRNNEPLTHAMYNLASLRELGETQRRPCTIQVPEPILRKIETFLNHYPVESSWIAPELRLQSDDILPLGKDSGPLSDPITGKPYVPLLEAEEVRLSQSLLELWRRRGPVWQEAPQLPVDPHRDTILNAIEQHPVVVISGDTGCGKTTRIPQLLLERYVTEGRGARCNVIITQPRRISAVSVAQRVSHELGPSLRRNVGFQVRLESKPPSRGGALLFCTVGILLRKLQSNPSLEGVSHVIVDEVHERDVNTDFLLILLKGLQRLNPALRLVLMSATGDNERFSRYFGGCPVIKVPGFMYPVKEHYLEDILAKLGKHQYLHRHRHHESEDECALDLDLVTDLVLHIDARGEPGGILCFLPGWQEIKGVQQRLQEALGMHESKYLILPVHSNIPMMDQKAIFQQPPVGVRKIVLATNIAETSITINDIVHVVDSGLHKEERYDLKTKVSCLETVWVSRANVIQRRGRAGRCQSGFAYHLFPRSRLEKMVPFQVPEILRTPLENLVLQAKIHMPEKTAVEFLSKAVDSPNIKAVDEAVILLQEIGVLDQREYLTTLGQRLAHISTDPRLAKAIVLAAIFRCLHPLLVVVSCLTRDPFSSSLQNRAEVDKVKALLSHDSGSDHLAFVRAVAGWEEVLRWQDRSSRENYLEENLLYAPSLRFIHGLIKQFSENIYEAFLVGKPSDCTLASAQCNEYSEEEELVKGVLMAGLYPNLIQVRQGKVTRQGKFKPNSVTYRTKSGNILLHKSTINREATRLRSRWLTYFMAVKSNGSVFVRDSSQVHPLAVLLLTDGDVHIRDDGRRATISLSDSDLLRLEGDSRTVRLLKELRRALGRMVERSLRSELAALPPSVQEEHGQLLALLAELLRGPCGSFDVRKTADD

By UniProt entry, the sequences of proteins in these tests, tags left out.
UniProt P27694: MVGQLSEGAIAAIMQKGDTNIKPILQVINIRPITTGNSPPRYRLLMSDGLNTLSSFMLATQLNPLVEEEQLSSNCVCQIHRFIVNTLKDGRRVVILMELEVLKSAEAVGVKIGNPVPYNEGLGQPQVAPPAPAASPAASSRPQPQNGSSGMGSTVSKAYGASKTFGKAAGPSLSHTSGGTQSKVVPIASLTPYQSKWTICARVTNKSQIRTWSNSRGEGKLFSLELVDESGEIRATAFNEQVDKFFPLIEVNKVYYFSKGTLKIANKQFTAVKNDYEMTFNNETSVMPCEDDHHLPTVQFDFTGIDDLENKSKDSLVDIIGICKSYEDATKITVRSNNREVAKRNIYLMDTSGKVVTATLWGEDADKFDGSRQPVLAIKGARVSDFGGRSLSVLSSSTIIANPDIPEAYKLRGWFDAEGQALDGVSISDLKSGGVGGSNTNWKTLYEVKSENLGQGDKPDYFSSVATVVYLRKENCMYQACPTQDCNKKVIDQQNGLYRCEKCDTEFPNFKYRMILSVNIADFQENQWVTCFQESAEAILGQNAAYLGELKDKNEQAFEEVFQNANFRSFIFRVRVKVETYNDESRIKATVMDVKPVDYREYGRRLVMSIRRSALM
UniProt O43143: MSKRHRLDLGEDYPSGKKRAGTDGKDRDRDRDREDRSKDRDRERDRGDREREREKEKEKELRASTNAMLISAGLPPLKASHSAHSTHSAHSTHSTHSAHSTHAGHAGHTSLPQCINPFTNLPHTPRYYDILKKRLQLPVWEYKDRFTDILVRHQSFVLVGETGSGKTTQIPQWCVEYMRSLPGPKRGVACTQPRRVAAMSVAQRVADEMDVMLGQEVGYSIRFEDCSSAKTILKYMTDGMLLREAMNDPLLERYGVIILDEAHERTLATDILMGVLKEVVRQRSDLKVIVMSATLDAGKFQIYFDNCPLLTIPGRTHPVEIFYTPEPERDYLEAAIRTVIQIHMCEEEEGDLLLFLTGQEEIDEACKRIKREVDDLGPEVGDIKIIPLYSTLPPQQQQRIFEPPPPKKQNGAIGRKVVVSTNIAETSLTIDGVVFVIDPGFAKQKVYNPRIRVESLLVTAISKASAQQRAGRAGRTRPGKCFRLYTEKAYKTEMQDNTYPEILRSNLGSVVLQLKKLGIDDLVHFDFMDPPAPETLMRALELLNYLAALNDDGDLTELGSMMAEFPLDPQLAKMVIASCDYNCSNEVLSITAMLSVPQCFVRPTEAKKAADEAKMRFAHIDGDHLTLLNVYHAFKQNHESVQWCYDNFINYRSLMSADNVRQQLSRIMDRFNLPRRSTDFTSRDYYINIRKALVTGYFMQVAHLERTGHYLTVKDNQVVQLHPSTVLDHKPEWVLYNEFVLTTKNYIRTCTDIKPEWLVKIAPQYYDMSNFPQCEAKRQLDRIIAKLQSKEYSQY
UniProt P12956: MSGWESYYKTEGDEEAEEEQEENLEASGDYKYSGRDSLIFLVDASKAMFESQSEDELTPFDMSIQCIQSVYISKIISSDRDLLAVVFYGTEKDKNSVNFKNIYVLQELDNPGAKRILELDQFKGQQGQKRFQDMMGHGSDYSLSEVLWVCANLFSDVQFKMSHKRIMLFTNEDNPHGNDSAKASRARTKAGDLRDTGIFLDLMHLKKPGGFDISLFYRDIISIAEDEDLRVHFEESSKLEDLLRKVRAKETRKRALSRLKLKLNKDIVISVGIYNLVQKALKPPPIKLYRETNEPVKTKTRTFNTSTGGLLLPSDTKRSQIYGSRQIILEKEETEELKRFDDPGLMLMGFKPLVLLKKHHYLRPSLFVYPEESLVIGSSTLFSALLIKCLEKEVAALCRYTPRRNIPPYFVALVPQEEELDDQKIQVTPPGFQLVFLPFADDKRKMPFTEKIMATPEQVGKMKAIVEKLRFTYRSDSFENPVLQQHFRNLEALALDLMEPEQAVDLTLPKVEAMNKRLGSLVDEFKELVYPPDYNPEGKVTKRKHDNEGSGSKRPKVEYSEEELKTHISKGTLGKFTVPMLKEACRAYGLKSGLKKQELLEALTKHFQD
UniProt P67809: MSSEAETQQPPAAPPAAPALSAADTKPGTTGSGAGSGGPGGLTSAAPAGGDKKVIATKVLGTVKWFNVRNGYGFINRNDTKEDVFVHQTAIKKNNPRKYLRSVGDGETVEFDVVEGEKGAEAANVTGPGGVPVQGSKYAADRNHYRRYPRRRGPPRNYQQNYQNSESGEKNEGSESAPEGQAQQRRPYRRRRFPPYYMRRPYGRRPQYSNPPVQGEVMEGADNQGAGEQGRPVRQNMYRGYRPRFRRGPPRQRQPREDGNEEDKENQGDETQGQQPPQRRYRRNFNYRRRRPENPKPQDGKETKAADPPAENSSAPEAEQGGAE

Results are given in words; binding and its absence hold for the method and conditions named. Binding seen in cells or lysates may run through a third protein. A yes stands for co-enrichment or nearness to the bait. Other partners may have been found. Tags and fused reporters may be left off the sequences shown.

The target of this test is T1, Flag-tagged HBoV1 NP1 (NP1^Flag) (human bocavirus 1 (HBoV1)) (UniProt Q3YPH5).
T1 sequence: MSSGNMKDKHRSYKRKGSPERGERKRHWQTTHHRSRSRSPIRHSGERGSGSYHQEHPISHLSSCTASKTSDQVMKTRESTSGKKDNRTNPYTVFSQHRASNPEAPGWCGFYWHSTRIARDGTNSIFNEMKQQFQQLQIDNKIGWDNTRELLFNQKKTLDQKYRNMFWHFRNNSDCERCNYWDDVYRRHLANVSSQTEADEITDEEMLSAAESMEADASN
The test can be described thus: affinity purification with mass spectrometry; HEK293 co-transfected with pIHBoV1^ΔNP1 and pCI-NP1^Flag; lysate (50 mM Tris pH7.5, 150 mM NaCl, 0.5% NP-40, 1 mM EDTA, 10% glycerol) with anti-Flag or control IgG and protein G beads, 4°C; unique gel bands and sections to MS; no nuclease.
For “RPA70 (endogenous) (from UniProt P27694 1-616)”, the binding result is listed as “binds”.
As for DHX15/DDX15 (from UniProt O43143 1-795), the binding entry is “binds”.
For the molecule “ATP-dependent DNA helicase II 70 KDa (Ku70) (endogenous) (from UniProt P12956 1-609)”, the binding result is “binds”.
As for “Y-box binding protein 1 (YBX1) (from UniProt P67809 1-324)”, the entry is “binds”; as for B1, “binds”.
